For four substances, binding results are on record in article PMC8795447.

Protein sequences, listed by entry. Tags and fused reporters are not part of them. Lines headed by an entry give the natural chain unless they say otherwise; changes in a name come on top. Chains listed by the source or under a name are the forms on record and can include a tag or linker. Residues count along the entry.
UniProt P08912: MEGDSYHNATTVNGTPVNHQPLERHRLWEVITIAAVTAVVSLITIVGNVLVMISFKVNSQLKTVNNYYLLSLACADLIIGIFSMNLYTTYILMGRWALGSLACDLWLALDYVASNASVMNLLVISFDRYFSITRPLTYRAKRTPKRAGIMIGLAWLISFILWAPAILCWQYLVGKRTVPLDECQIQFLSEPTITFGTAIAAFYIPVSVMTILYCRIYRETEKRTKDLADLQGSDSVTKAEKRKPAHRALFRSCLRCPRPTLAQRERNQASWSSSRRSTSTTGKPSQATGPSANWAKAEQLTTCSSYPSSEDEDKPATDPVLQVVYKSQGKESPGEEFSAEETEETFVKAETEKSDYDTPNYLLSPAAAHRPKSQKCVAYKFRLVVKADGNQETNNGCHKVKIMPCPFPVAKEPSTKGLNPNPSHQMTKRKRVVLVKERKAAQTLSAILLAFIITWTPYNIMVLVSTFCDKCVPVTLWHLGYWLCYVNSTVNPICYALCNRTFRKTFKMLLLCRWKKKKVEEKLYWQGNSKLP
AT1R^S347A/S348A (P30556, form named): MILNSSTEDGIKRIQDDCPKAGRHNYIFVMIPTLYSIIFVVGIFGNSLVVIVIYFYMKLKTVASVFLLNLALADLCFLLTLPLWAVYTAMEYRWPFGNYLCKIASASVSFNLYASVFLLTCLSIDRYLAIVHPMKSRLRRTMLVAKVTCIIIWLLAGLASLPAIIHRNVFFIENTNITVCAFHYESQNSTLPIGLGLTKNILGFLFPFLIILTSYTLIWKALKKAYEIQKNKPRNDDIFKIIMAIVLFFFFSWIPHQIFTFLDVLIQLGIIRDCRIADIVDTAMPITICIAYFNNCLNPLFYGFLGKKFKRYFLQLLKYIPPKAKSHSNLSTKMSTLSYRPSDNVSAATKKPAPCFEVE
AT1R^S347A (P30556, form named): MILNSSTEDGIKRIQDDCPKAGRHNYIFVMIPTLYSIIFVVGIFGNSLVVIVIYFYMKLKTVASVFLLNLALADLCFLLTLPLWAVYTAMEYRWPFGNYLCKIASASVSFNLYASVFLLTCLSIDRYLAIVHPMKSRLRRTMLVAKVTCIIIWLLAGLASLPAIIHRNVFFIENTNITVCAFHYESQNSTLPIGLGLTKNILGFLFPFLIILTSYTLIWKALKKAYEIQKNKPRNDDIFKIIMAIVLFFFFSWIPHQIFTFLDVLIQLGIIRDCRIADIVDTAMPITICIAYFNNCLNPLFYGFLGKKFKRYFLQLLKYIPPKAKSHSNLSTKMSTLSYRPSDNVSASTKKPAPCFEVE
AT1R^S348A (P30556, form named): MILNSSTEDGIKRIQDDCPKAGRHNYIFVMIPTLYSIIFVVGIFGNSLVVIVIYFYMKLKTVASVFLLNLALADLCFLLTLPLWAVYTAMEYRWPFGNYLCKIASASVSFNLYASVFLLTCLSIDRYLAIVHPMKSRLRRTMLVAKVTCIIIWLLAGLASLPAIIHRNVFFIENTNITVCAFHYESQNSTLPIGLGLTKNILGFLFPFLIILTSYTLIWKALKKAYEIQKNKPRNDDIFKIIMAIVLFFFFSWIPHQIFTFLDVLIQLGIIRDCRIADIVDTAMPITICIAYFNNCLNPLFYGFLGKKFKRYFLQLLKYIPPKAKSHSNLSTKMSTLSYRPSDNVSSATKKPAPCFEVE
UniProt P42866: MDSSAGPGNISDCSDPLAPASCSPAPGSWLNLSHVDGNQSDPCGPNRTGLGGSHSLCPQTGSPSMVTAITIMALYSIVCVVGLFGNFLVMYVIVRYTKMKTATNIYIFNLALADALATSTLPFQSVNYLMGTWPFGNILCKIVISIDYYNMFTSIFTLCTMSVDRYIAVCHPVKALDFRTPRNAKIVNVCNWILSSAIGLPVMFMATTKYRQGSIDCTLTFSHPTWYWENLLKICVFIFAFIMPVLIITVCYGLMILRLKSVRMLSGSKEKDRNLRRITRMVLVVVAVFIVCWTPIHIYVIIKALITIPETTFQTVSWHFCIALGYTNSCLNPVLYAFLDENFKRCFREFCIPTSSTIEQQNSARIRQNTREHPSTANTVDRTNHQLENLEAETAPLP
UniProt P08172: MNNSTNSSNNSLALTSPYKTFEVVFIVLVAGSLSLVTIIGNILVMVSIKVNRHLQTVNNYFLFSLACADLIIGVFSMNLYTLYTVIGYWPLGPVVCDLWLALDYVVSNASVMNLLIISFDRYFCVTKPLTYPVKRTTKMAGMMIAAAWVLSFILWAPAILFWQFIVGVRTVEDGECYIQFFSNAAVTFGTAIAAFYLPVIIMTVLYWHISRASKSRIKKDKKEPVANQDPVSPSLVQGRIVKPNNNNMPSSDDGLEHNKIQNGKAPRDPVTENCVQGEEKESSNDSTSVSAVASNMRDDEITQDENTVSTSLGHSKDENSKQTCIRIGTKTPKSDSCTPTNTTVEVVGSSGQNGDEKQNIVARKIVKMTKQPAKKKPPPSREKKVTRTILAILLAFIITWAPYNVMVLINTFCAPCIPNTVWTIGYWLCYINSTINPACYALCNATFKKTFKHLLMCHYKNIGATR
UniProt P21730: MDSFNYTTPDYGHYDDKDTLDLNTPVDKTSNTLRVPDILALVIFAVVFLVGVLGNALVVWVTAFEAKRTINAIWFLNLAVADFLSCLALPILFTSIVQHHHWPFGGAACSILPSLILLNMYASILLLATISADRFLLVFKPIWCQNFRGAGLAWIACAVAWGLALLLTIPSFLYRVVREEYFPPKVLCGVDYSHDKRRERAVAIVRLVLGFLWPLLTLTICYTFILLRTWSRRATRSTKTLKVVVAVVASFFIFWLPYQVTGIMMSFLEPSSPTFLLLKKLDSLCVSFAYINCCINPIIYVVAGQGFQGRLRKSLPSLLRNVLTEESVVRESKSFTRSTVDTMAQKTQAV
UniProt P08173: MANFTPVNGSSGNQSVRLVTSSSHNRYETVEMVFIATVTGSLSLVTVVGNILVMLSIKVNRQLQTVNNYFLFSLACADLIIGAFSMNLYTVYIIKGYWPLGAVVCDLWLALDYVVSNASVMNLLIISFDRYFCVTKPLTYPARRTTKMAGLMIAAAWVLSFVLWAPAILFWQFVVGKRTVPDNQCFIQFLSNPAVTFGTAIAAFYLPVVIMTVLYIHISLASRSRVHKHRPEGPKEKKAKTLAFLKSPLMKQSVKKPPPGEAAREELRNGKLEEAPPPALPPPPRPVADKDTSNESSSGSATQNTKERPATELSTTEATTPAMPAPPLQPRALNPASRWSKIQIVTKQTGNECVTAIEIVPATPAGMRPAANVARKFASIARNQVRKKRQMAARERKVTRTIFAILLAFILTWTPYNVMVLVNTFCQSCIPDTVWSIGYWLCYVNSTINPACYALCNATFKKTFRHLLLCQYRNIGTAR
UniProt P20309: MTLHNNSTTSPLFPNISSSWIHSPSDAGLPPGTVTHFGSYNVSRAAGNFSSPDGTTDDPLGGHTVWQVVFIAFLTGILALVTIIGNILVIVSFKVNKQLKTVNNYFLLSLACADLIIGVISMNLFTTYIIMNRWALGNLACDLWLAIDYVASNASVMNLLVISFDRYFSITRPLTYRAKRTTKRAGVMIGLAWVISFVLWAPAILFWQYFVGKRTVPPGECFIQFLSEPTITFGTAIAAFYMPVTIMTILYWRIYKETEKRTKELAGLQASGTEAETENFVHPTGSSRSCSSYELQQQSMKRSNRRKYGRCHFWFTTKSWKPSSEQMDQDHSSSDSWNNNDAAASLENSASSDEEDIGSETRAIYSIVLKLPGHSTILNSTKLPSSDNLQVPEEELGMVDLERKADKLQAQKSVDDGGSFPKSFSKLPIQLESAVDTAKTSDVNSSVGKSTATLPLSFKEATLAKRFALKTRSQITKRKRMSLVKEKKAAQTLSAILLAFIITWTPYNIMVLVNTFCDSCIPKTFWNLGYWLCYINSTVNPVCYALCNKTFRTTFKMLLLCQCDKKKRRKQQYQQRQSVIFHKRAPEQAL
UniProt Q03431, residues 27-593: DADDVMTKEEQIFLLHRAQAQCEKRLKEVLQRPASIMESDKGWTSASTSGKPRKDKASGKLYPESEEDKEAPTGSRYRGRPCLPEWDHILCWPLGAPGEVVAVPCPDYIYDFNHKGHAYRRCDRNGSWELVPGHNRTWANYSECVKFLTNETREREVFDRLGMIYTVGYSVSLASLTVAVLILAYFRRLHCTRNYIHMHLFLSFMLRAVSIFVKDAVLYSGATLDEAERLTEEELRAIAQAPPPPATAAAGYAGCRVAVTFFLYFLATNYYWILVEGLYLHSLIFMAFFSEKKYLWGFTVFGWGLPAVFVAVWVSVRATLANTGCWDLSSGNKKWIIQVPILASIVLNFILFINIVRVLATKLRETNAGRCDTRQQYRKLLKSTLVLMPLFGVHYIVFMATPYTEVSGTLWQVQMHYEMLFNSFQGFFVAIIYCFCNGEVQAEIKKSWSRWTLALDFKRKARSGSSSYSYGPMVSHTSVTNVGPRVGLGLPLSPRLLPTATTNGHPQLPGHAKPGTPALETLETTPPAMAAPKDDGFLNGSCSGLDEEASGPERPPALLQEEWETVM
UniProt P17870: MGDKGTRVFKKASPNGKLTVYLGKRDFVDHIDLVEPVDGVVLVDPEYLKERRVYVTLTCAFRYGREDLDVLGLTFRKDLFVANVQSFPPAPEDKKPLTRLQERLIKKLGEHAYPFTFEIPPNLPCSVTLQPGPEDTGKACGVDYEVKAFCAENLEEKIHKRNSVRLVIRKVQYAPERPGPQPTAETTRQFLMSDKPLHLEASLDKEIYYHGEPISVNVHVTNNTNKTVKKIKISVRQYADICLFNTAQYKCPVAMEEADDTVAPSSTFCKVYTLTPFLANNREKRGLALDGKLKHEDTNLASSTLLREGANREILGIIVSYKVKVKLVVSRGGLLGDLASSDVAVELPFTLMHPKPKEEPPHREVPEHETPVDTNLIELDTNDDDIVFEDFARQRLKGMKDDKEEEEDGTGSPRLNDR

No constants are given. Whether binding was seen depends on the method and setting. In cells and extracts the contact can be indirect. Some entries that bind do so weakly or less than the wild type.

Experiment [1] concerns the target muscarinic acetylcholine receptor M5-NanoLuc (human) (UniProt P08912). Nature of the experiment: condition: only in ΔQ-GRK cells (knockout of GRK2, 3, 5 and 6); FRET or BRET; intermolecular NanoBRET (GPCR-NanoLuc, Halo-Tag-β-arrestin) in ΔQ-GRK cells + empty vector (knockout of GRK2, 3, 5 and 6), agonist-stimulated.
Experiment [2] deals with angiotensin II type 1 receptor-NanoLuc (human) (UniProt P30556). Nature of the experiment: condition: only in ΔQ-GRK cells with the PKC inhibitor Gö6983 (500 nM); FRET or BRET; intermolecular NanoBRET (AT1R-NanoLuc, Halo-Tag-β-arrestin) in ΔQ-GRK cells + empty vector, pre-incubated with 500 nM PKC inhibitor Gö6983 at 37 °C for 1 h, then AngII. (Bioluminescence resonance energy transfer reports proximity on the nanometre scale.)

Experiment [3] has as its target µ-opioid receptor-NanoLuc (murine) (UniProt P42866). Nature of the experiment: FRET or BRET; intermolecular NanoBRET in living HEK293 cells: GPCR-NanoLuc (donor) and Halo-Tag-β-arrestin labelled with Halo 618 ligand (acceptor); Control, ΔGRK clones or ΔQ-GRK with EV or one overexpressed GRK (2, 3, 5 or 6); baseline 3 min, then agonist for 5 min; some experiments with Gö6983, cmpd101, pindolol or Losartan.

Experiment [4] deals with muscarinic acetylcholine receptor M5-NanoLuc (human) (UniProt P08912). Described as above.
The target in experiment [5] is muscarinic acetylcholine receptor M2-NanoLuc (human) (UniProt P08172). The experiment is described as above.
The target of experiment [6] is complement 5a receptor 1-NanoLuc (human) (UniProt P21730). Described as above.
In experiment [7] the target is muscarinic acetylcholine receptor M4-NanoLuc (human) (UniProt P08173). The experiment is described as above.
Experiment [8] addresses angiotensin II type 1 receptor-NanoLuc (human) (UniProt P30556). The description is as above.
Experiment [9] concerns the target AT1R^S347A/S348A (human) (UniProt P30556). The description is as above.
For experiment [10], the target named is muscarinic acetylcholine receptor M3-NanoLuc (human) (UniProt P20309). Described as above.
Experiment [11] has as its target AT1R^S347A (human) (UniProt P30556). The experiment is described as above.
Experiment [12] has as its target AT1R^S348A (human) (UniProt P30556). Described as above.
Experiment [13] addresses parathyroid hormone 1 receptor-Halo-Tag (human) (UniProt Q03431). Nature of the experiment: FRET or BRET; intermolecular NanoBRET in living HEK293 cells, BRET pair swapped: GPCR-Halo-Tag (PTH1R, V2R) and β-arrestin-NanoLuc; Control, ΔGRK clones or ΔQ-GRK with EV or one overexpressed GRK; baseline and after agonist (PTH(1-34) or AVP); some experiments with Tolvaptan.

In the case of “Halo-Tag-β-arrestin1 (from UniProt P17870 1-418)”, the binding result in experiment [1] is recorded as “no binding”; in experiment [2], “no binding”; in experiment [3], “binds”; in experiment [4] it was “binds”; in experiment [5], “binds”; in experiment [6], “binds”. Moreover, the binding result in experiment [7] and in [8] was “binds” throughout.

As to “Halo-Tag-β-arrestin2 (from UniProt P32120 1-420)”, the binding result in [9], in experiment [3], in experiment [4], in experiment [5], in experiment [6] and in experiment [10] was “binds” in each case. Moreover, the binding result in experiment [11], in [12], in [7] and in [8] was “binds” each time.

Consider “β-arrestin1-NanoLuc (from UniProt P17870 1-418)”, for which the binding entry in [13] is on record as “binds”.

Consider “β-arrestin2-NanoLuc (from UniProt P32120 1-420)”, for which the binding entry in [13] is on record as “binds”.
